Data as given in PubChem BioAssay AID1259308 (NCATS, 2017).

- Purpose: 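Genes whose loss raises luciferase production in HEK293 cells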 (primary screen)
- System: human HEK293 embryonic kidney cells stably expressing firefly luciferase (HEK-CMV-Luc2-Hygro)
- Reagents: single siRNA against human genes, 0.8 pmol siRNA per well
- Duration: 72 h
- Read-out: 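Luciferase light (ONE-Glo) measured on one replicate plate set and viability (CellTiter-Glo) on the other, scaled to a negative control siRNA, with robust z-scores and luciferase per cell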
- Reading the numbers: total luciferase, z-score: higher = more reporter protein produced
- Hit rule: 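An siRNA counts as active if its total luciferase robust z-score exceeds 3; genes with two or more such siRNAs out of three were retested with fresh siRNAs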
- Meaning of the calls: active = raised luciferase; inactive = no rise
This is one part, drawn at random, of about 59,000 reagents. About 1,510 of them (2.6%) were called active. 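Calls use total luciferase alone and ignore viability, so some active siRNAs may act by altering cell number.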 Reagents against one gene are numbered here. Not all columns of the deposit are shown.

total luciferase, z-score, by target gene and reagent
RPL37A (ribosomal protein L37a): #1 -2.5 inactive; #2 -1.74 inactive; #3 -1.51 inactive
MADCAM1 (mucosal vascular addressin cell adhesion molecule 1): #1 2.26 inactive; #2 0.729 inactive; #3 3.11 active
LINC00574 (long independently transcribed non-coding RNA 574): #1 0.586 inactive; #2 -0.429 inactive; #3 1.47 inactive
AGXT2 (alanine--glyoxylate aminotransferase 2): #1 0.000382 inactive; #2 0.785 inactive; #3 0.455 inactive
DEUP1 (deuterosome assembly protein 1): #1 -0.996 inactive; #2 -0.516 inactive; #3 -0.522 inactive
MNMIP1 (manchette microtubule inner protein 1): #1 1.61 inactive; #2 2.98 inactive; #3 0.817 inactive
SELE (selectin E): #1 -1.87 inactive; #2 -0.0759 inactive; #3 -0.302 inactive
TUBB4B (tubulin beta 4B class IVb): #1 0.281 inactive; #2 -1.08 inactive; #3 0.636 inactive

Hits, of those listed so far:
total luciferase, z-score, by target gene and reagent
MADCAM1 (mucosal vascular addressin cell adhesion molecule 1): #3 3.11 active
